# Experimental data published in PubChem BioAssay AID1347423 (Functional Genomics Laboratory (NCATS/FGL), 2020).
# Out of some 52,000 sequences screened, about 210 (0.4%) were called active.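 Rule for the calls: active = gene whose silencing raises cell survival under the drug, median off-target-corrected z-score across its silencing RNAs 2 or more; inactive = the rest.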 Some of the results follow.
# Test: Resistance to Poly (ADP-Ribose) Polymerase inhibitor: Gene Identification via Genome-wide siRNA Screen
# Details: mouse BRCA2 R2336H ES cells, olaparib, CellTiter-Glo viability; active compounds read high
# Summary of the method: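 Genome-wide siRNA screen (3 siRNAs/gene, 20 nM) in mouse ES cells carrying hypomorphic BRCA2 R2336H; olaparib 500 nM added 48 h post-transfection, CellTiter-Glo viability 72 h later. Normalized to plate-median negative control; MAD z-scores, gene median, seed-adjusted.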
row,Sequence,z-score
1,GCUGAUUCCGUGUCCCAACTT against Gng2,inactive: -0.0449
2,GGCAUCGAUUACAUAAGUUTT against Oxr1,inactive: -0.618
3,GGUUGGGCAUUGCACUAACTT against AI849156,inactive: 1.12
4,GGAAACCAAUAACUGUUUATT against C130073F10Rik,inactive: 0.392
5,GGCAAAGAUCGCAUCUUAATT against Eif2c2,inactive: 0.222
6,GGAAGAGAAGCUGAACAAGTT against Gja1,inactive: -2.07
7,GCUACCUUGAAUUUUCCGATT against Fxr2h,inactive: 0.359
8,GCAGCAUGGCAAAACCACATT against Bat9,inactive: -0.176
9,GGUCUGUAUGAAGACAUUATT against Tprt,inactive: 0.824
10,GCAACGAGGUACUGUUUUATT against 5430435G22Rik,inactive: 1.3
11,GGUGAUAGGUGUUAGACUATT against D18Wsu98e,inactive: 0.147
12,GCAUUGAAUUGCACUAUUGTT against 4933424B01Rik,inactive: -1.68
13,GGACAAUUGGAAGAUUUGGTT against A430106J12Rik,inactive: 0.132
14,GGUGUUGUUUUACUUCUGUTT against Timp2,inactive: 0.315
15,GGAACUGAGAUCAUUCUGCTT against Olfr140,inactive: -0.677
16,GGAAUUCUUAAGAAGUUACTT against Dsg2,inactive: -0.0763
17,GGUUAAAUCGAUUUUGCAUTT against Acbd5,inactive: 0.663
18,GGUGGUGGCAGAAAUGAAUTT against Dpep2,inactive: 1.52
19,GCACCUCCUUAUGUGUCAUTT against Chrm2,inactive: 0.305
20,GGUUGUAUUGGAUAUCAAGTT against Ceacam2,inactive: 0.456
21,GGCAGAGUAUGAGUUUGACTT against Camk1,inactive: 1.52
22,GCUCUUAAAAACUCAGCUUTT against 4933408F15,inactive: -0.746
23,GGGAGGAGUAAUAAUCCCGTT against B3gnt1,inactive: -0.128
24,GGCAUAACCGCCAUGUCAGTT against 2610034E18Rik,inactive: -0.438
25,GGCAACAGCAGCUUAUGCCTT against Map3k11,inactive: -0.988
26,GGUUAUCACUCCUCAACAATT against Foxp1,inactive: -0.826
27,CCGUUUAUAAAGAUCAGCUTT against Sara2,inactive: 0.721
28,GCCAGGUGGAUUUGACUAUTT against Ptprv,inactive: 0.968
29,GCCUUCUGGGUAGAAACUGTT against Lcn12,inactive: -1.59

# 2 entries from above in another layout.
row | Sequence | z-score
14 | GGUGUUGUUUUACUUCUGUTT against Timp2 | inactive: 0.315
15 | GGAACUGAGAUCAUUCUGCTT against Olfr140 | inactive: -0.677
